This note sets out measurements from paper PMC4822050, “Hemi-methylated DNA opens a closed conformation of UHRF1 to facilitate its histone recognition” (Nature Communications, 2016).

In data set [1] the test system is H3 peptide (1–17) (H3K9me0). Put plainly: ITC, H3 (H3K9me0) peptide (1-17) titrated into UHRF1 proteins. Type of data set: binding. Conditions: H3 in syringe; for N: ITC stoichiometry; for ΔH / ΔS: ITC. The method, then: (§1) For competition ITC experiments: the indicated proteins were pre-incubated with competitive peptide, protein or hm-DNA (at 1:2 molar ratio if not specified) for 10 min followed by ITC measurements as described above. Proteins, DNA and peptides were prepared within ITC buffer containing 10 mM HEPES, pH 8.0, 100 mM NaCl. The data were fitted by software Origin 7.0. All ITC results were summarized in Supplementary Table 2 and raw data were shown in Supplementary Fig. 9.
For orientation: In ITC the heat of successive injections is recorded.

The subject of the next data set is H3K9me3 peptide (1–17). Kind of data set: ITC, H3K9me3 peptide (1-17) titrated into UHRF1 proteins. The data set is classed as binding. The procedure: as §1
The subject of another data set is hm-DNA (12 bp). Put plainly: ITC, hm-DNA titrated into UHRF1 domains. Type of data set: binding. Conditions: hm-DNA in syringe. The method, then: as §1
The subject of data set [2] is PHD (residues 307–366) of UHRF1. Put plainly: ITC, PHD titrated into UHRF1 domains. The data set is classed as binding, human. The note with it: PHD in syringe. The procedure:
as §1

[3] abbreviates: ITC, H3K9me3 in syringe, named protein in cell.

As for “PHD: plant homeodomain of human UHRF1 (residues 307–366) (DDVNRLCRVCACHLCGGRQDPDKQLMCDECDMAFHIYCLDPPLSSVPSEDEWYCPECRND; UniProt Q96T88 307-366, looked up, fragment)”, in data set [1], the N came to 0.935±0.00653, the ΔH is -6.377 ± 0.06292 kcal/mol and the ΔS worked out at 6.08 cal/mol/deg.
For “SRA: SET-and-RING-associated domain of human UHRF1 (residues 414–617)”, in the data set with H3K9me3 peptide (1–17) (competition ITC, 1:2), the “N of H3K9me3 binding to the TTD in the presence of the named protein” value was found to be 1.29±0.00646, the “ΔH of H3K9me3 binding to the TTD in the presence of the named protein” value is -7.415 ± 0.05315 kcal/mol and the “ΔS of H3K9me3 binding to the TTD in the presence of the named protein” value is 2.25 cal/mol/deg. Also, the N in the data set with hm-DNA (12 bp) (ITC stoichiometry) was determined as 1.25±0.0495. Moreover, in the data set with hm-DNA (12 bp) (ITC), the ΔH was -2.648 ± 0.2213 kcal/mol and the ΔS came out at 12.0 cal/mol/deg. In data set [2] (ITC stoichiometry), this substance came in with an N of 0.823±0.16. Besides, in data set [2] (ITC), the ΔH is -3.506 ± 0.9792 kcal/mol and the ΔS is given as 9.34 cal/mol/deg.
“UHRF1: recombinant human UHRF1 (residues 1–793); GFP-tagged in the cell assay”: in the data set on H3K9me3 peptide (1–17) (ITC stoichiometry, H3K9me3 in syringe, named protein in cell), the N is 1.05±0.0196. In the data set with H3K9me3 peptide (1–17) (setting [3]), this substance came in with a ΔH of -4.646E4±1233 cal/mol and a ΔS of -57.3 cal/mol/deg. In data set [1], the N was found to be 1.18±0.063, the ΔH was -7.147 ± 0.738 kcal/mol and the ΔS was -3.41 cal/mol/deg.
